Results are given in words; binding and its absence hold for the method and conditions named. Binding seen in cells or lysates may run through a third protein. These calls come from enrichment with a bait or labelling near it, and not all partners need be listed. Tags and fused reporters may be left off the sequences shown.
Target: T1, TAP-tagged Ku protein of M. smegmatis (knock-in strain) (M. smegmatis) (UniProt A0R3S7)
T1 sequence: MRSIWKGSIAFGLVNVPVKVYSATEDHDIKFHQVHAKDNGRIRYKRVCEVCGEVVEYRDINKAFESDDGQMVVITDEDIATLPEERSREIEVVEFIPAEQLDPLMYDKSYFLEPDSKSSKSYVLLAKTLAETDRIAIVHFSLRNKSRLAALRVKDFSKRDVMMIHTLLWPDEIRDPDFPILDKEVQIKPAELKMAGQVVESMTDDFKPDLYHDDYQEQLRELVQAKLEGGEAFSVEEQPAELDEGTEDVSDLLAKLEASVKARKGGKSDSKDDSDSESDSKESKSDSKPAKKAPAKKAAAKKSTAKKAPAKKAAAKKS
Assay: affinity purification with mass spectrometry; tandem affinity purification (IgG-Sepharose, TEV cleavage, calmodulin resin) of C-terminally TAP-tagged Ku from M. smegmatis crude cytoplasmic extract, 4°C, 10 mM Tris-HCl pH 7.9, 0.15 M NaCl; SDS-PAGE, silver staining, bands identified by LC-MS/MS; repeated independently

B1: NAD-dependent deacetylase (MSMEG_5175), MsmSir2, endogenous in M. smegmatis (enzyme, UniProt A0R2N3 1-240)
chain: MQVTVLSGAGISAESGVPTFRDAETGLWAQVDPYEISSTDGWQRNPEKVWAWYLWRHYMMARVAPNEAHRTVAAWEDHLDVRVVTQNIDDLHERAGSTNVYHLHGSLFEFRCDACGSAFEGNLPEMPEPVETIDPPVCPCSGLIRPSVVWFGEPLPDAAWNRSVLAVSSADVVIVVGTSSIVYPAAGLPEAALAAGKPVIEVNPERTPLSDSATVSLRETASEALPTLLQRLPELLNRSA
**Q.** B1 was tested. Which binding did it give?
**A.** binds
